Laboratory results reported in the supplement of paper PMC8728848.
The other results are listed elsewhere or left out.

Tests used:
Experiment in all cases: glycan array binding signal (z-score within array); higher = stronger binding
Conditions in all cases: glycan notation: IUPAC condensed, linker removed
[1] = biological target: Fuc(a1-2)[GalNAc(a1-3)]Gal(b1-3)GlcNAc(b1-6)GalNAc
In short: (§1)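 The Consortium for Functional Glycomics database supplied 3228 glycan arrays, of which those lacking an available protein sequence were dropped. The binding signal, a within-array Z-score, was averaged across arrays of the same protein sequence and across linkers. Negative scores can be read as non-binding.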

[2] = biological target: Fuc(a1-2)[GalNAc(a1-3)]Gal(b1-4)Glc
In short: as §1

[3] = biological target: Fuc(a1-2)[GalNAc(a1-3)]Gal(b1-4)GlcNAc
In short: as §1

[4] = biological target: Fuc(a1-2)[GalNAc(a1-3)]Gal(b1-4)GlcNAc(b1-2)Man
In short: as §1

[5] = biological target: Fuc(a1-2)[GalNAc(a1-3)]Gal(b1-4)GlcNAc(b1-2)Man(a1-3)[Fuc(a1-2)[GalNAc(a1-3)]Gal(b1-4)GlcNAc(b1-2)Man(a1-6)]Man(b1-4)GlcNAc(b1-4)GlcNAc
In short: as §1

[6] = biological target: Fuc(a1-2)[GalNAc(a1-3)]Gal(b1-4)GlcNAc(b1-2)Man(a1-3)[Fuc(a1-2)[GalNAc(a1-3)]Gal(b1-4)GlcNAc(b1-2)Man(a1-6)]Man(b1-4)GlcNAc(b1-4)[Fuc(a1-6)]GlcNAc
In short: as §1

[7] = biological target: Fuc(a1-2)[GalNAc(a1-3)]Gal(b1-4)GlcNAc(b1-3)Gal(b1-4)GlcNAc
In short: as §1

[8] = biological target: Fuc(a1-2)[GalNAc(a1-3)]Gal(b1-4)GlcNAc(b1-3)Gal(b1-4)GlcNAc(b1-3)Gal(b1-4)GlcNAc
In short: as §1

[9] = biological target: Fuc(a1-2)[GalNAc(a1-3)]Gal(b1-4)GlcNAc(b1-3)GalNAc
In short: as §1

[10] = biological target: Fuc(a1-2)[GalNAc(a1-3)]Gal(b1-4)GlcNAc(b1-3)[Fuc(a1-2)[GalNAc(a1-3)]Gal(b1-4)GlcNAc(b1-6)]GalNAc
In short: as §1

[11] = biological target: Fuc(a1-2)[GalNAc(a1-3)]Gal(b1-4)GlcNAc(b1-6)GalNAc
In short: as §1

[12] = biological target: Fuc(a1-2)[GalNAc(a1-3)]Gal(b1-4)[Fuc(a1-3)]GlcNAc
In short: as §1

[13] = biological target: Fuc(a1-2)[GalNAc(a1-3)]Gal(b1-4)[Fuc(a1-3)]GlcNAc(b1-3)GalNAc
In short: as §1

[14] = biological target: Fuc(a1-2)[GalNAc(a1-4)]Gal(b1-4)GlcNAc
In short: as §1

[15] = biological target: Fuc(a1-2)[GalNAc(b1-3)]Gal
In short: as §1

[16] = biological target: Fuc(a1-3)GlcNAc
In short: as §1

[17] = biological target: Fuc(a1-3)[Gal(b1-4)]Glc6S
In short: as §1

[18] = biological target: Fuc(a1-3)[Gal(b1-4)]GlcNAc
In short: as §1

[19] = biological target: Fuc(a1-3)[Gal(b1-4)]GlcNAc(b1-2)Man
In short: as §1

[20] = biological target: Fuc(a1-3)[Gal(b1-4)]GlcNAc(b1-2)Man(a1-3)[Fuc(a1-3)[Gal(b1-4)]GlcNAc(b1-2)Man(a1-6)]Man(b1-4)GlcNAc(b1-4)GlcNAc
In short: as §1

[21] = biological target: Fuc(a1-3)[Gal(b1-4)]GlcNAc(b1-2)Man(a1-3)[Fuc(a1-3)[Gal(b1-4)]GlcNAc(b1-2)Man(a1-6)]Man(b1-4)GlcNAc(b1-4)[Fuc(a1-6)]GlcNAc
In short: as §1

[22] = biological target: Fuc(a1-3)[Gal(b1-4)]GlcNAc(b1-3)Gal(b1-3)[Fuc(a1-4)]GlcNAc
In short: as §1

[23] = biological target: Fuc(a1-3)[Gal(b1-4)]GlcNAc(b1-3)Gal(b1-4)[Fuc(a1-3)]GlcNAc
In short: as §1

[24] = biological target: Fuc(a1-3)[Gal(b1-4)]GlcNAc(b1-3)Gal(b1-4)[Fuc(a1-3)]GlcNAc(b1-3)Gal(b1-4)[Fuc(a1-3)]GlcNAc
In short: as §1

[25] = biological target: Fuc(a1-3)[Gal(b1-4)]GlcNAc(b1-3)GalNAc
In short: as §1

[26] = biological target: Fuc(a1-3)[Gal(b1-4)]GlcNAc(b1-6)GalNAc
In short: as §1

[27] = biological target: Fuc(a1-3)[Gal(b1-4)]GlcNAc(b1-6)[Gal(b1-3)GlcNAc(b1-3)]Gal(b1-4)Glc
In short: as §1

[28] = biological target: Fuc(a1-3)[Gal(b1-4)]GlcNAc6S
In short: as §1

[29] = biological target: Fuc(a1-3)[Gal3S(b1-4)]Glc
In short: as §1

[30] = biological target: Fuc(a1-3)[Gal3S(b1-4)]GlcNAc
In short: as §1

[31] = biological target: Fuc(a1-3)[Gal3S(b1-4)]GlcNAc6S
In short: as §1

[32] = biological target: Fuc(a1-3)[GalNAc(b1-4)]GlcNAc
In short: as §1

[33] = biological target: Fuc(a1-3)[GalNAc(b1-4)]GlcNAc6S
In short: as §1

[34] = biological target: Fuc(a1-4)GlcNAc
In short: as §1

[35] = biological target: Fuc(b1-3)GlcNAc
In short: as §1

[36] = biological target: Gal(a1-2)Gal
In short: as §1

[37] = biological target: Gal(a1-3)Gal
In short: as §1

B1: Clec39 (Caenorhabditis elegans) (protein)
chain: MTSFYDNSSSSSKPVPLKTSRAQKIQILIFDNWKLILYGAISTLILVLAIMFSTLFFALPAANCDENSEPTKYYTTNAEITTTITTTNQKTTSTASSHLTTISSSATQIYSESSSSSTSQSTFTQSPPEISTTTIAPSDFSCQHGFTLVNNKCWKLVTSNQARPDADKICNGYGGATLFSIKSEQDNRAMIHFVKGQDIDFLWSGLLCSAGEPISCIWDIENGSTANYSNFADGFPNIVYGNCVYFITSGDEAGQWGNEQCGQVMNFVCELPATFQGKDGCKNNYEKSCYLRFDLNLTVPQAQNFCLEKCANLVSIHSANEVRFIMTIYDFIGEILIGALAPAQDFIYWLDGTPANYNNLKFFYNSTCVHMTVAPGMQNVGKWFTRFCTETGKFLCKRSIKNSCT
glycan array binding signal (z-score) [1]: -1.5 | glycan array binding signal (z-score) [2]: 2.18 | glycan array binding signal (z-score) [3]: -0.203 | glycan array binding signal (z-score) [4]: -1.14 | glycan array binding signal (z-score) [5]: 1.1 | glycan array binding signal (z-score) [6]: 0.878 | glycan array binding signal (z-score) [7]: -0.024 | glycan array binding signal (z-score) [8]: -0.054 | glycan array binding signal (z-score) [9]: -0.527 | glycan array binding signal (z-score) [10]: -0.534 | glycan array binding signal (z-score) [11]: -0.922 | glycan array binding signal (z-score) [12]: -0.447 | glycan array binding signal (z-score) [13]: 0.3 | glycan array binding signal (z-score) [14]: 1.18 | glycan array binding signal (z-score) [15]: 0.824 | glycan array binding signal (z-score) [16]: -1.1 | glycan array binding signal (z-score) [17]: -0.794 | glycan array binding signal (z-score) [18]: -0.574 | glycan array binding signal (z-score) [19]: -0.391 | glycan array binding signal (z-score) [20]: -0.109 | glycan array binding signal (z-score) [21]: 4.38 | glycan array binding signal (z-score) [22]: -0.807 | glycan array binding signal (z-score) [23]: -0.131 | glycan array binding signal (z-score) [24]: 0.41 | glycan array binding signal (z-score) [25]: 0.908 | glycan array binding signal (z-score) [26]: 0.7 | glycan array binding signal (z-score) [27]: -1.38 | glycan array binding signal (z-score) [28]: -0.848 | glycan array binding signal (z-score) [29]: 0.025 | glycan array binding signal (z-score) [30]: -0.816 | glycan array binding signal (z-score) [31]: -0.835 | glycan array binding signal (z-score) [32]: -0.638 | glycan array binding signal (z-score) [33]: -1.31 | glycan array binding signal (z-score) [34]: -0.161 | glycan array binding signal (z-score) [35]: -0.031 | glycan array binding signal (z-score) [36]: -0.318 | glycan array binding signal (z-score) [37]: 0.358
